Assay results taken from article PMC12040169 (PLOS Biology, 2025).
This is one part of the list.

What follows are compounds tested on T1, CTL2-GFP (C. trachomatis L2/434/Bu, GFP-expressing). Details: bulk GFP, single well; 28.5 h, 10 µM; inhibitor.
T1 construct: L2/434/Bu, GFP-expressing
Parameters: species or system HeLa; Intracellular C. trachomatis growth in HeLa cells, bulk GFP fluorescence relative to DMSO

SMILES | % of control remaining
COc1ccc(S(=O)(=O)n2ccn(-c3ccc(Oc4ccccc4)cc3)c2=O)cc1OC [CBK106649] | 100%
COc1cccc(Cc2cccc(C3CCN(C(=O)Cc4c[nH]c5ccccc45)CC3)n2)c1 [CBK286145] | 111.239%
CS(=O)(=O)N1CCN(c2ccc(NC(=O)c3ccc(-c4cccc([N+](=O)[O-])c4)o3)cc2)CC1 [CBK268602] | 145.694%
COc1ccc2[nH]c3c(c2c1)CCN(C=O)C31CCN(Cc2cccc(Cl)c2)C1 (stereo not shown) [CBK040376] | 96.649%
Cc1cc(C)n(-c2ccc(CN3C(=O)NC4(CCCC4)C3=O)cc2)n1 [CBK305796] | 136.426%
CCSc1nnc2c3c(sc2c1N)CC(C)(C)OC3 [CBK020374] | 166.508%
CCCC/C=C/c1cccc(Nc2cccnc2)n1 [CBK037645] | 139.127%
O=C(NCc1cccs1)C1(Cc2ccc(-c3ccc(F)c(F)c3)cc2)CCOCC1 [CBK285533] | 79.087%
COc1ccccc1C(=O)Nc1sc2c(c1C#N)CC(C)(C)NC2(C)C [CBK307233] | 148.877%
O=C(Nc1cccnc1)N1CCN(c2ccccc2)CC1 [CBK145043] | 126.739%
CCc1cc(Br)ccc1S(=O)(=O)Nc1ccccc1O [CBK043877] | 86.7211%
Cc1c(Cl)cccc1S(=O)(=O)Nc1nccnc1C(=O)O [CBK024795] | 146.471%
O=C(Cc1ccccc1)Nc1nnc(C2=COCCO2)o1 [CBK287416] | 150.917%
O=C1C2C3C=CC(C2C(=O)N1CCO)C1C2C(=O)N(CCO)C(=O)C2C31 (stereo not shown) [CBK263016] | 98.5979%
Cc1[nH]c(=O)[nH]c(=O)c1Cc1cccc2ccccc12 [CBK111494] | 105.079%
CCCOc1ccc(OC(=O)COc2ccccc2)cc1 [CBK160853] | 124.807%
Cc1c(Br)c(C(F)(F)F)nn1CC(=O)NCCN1CCOCC1 [CBK018700] | 123.029%
Cn1cc(C2CCCCCN2C(=O)c2cc(C3CC3)on2)cn1 (stereo not shown) [CBK285301] | 124.163%
CCC(=O)Nc1sc2c(c1-c1nc3ccccc3s1)CCCC2 [CBK287324] | 168.878%
COc1cc(C(c2c[nH]c3ccccc23)c2c[nH]c3ccccc23)c(Br)cc1OC(C)=O [CBK266051] | 121.085%
Nc1ccc(S(=O)(=O)NC2(C(F)(F)F)NC(=O)N(c3ccccc3Cl)C2=O)cc1 (stereo not shown) [CBK268003] | 126.438%
CC(C)N1CCN(c2nccnc2Cl)CC1 [CBK028901] | 115.651%
CC(=O)c1ccc(-c2ccc(C(=O)NCC3COc4ccccc4O3)c(N(C)C(C)=O)n2)s1 (stereo not shown) [CBK076637] | 109.437%
Nc1ccn([C@@H]2O[C@H](CO)[C@H](O)C2O)c(=S)n1 (stereo partly shown) [CBK201293] | 116.807%
COc1cccc(NC(=O)CCS(=O)(=O)c2cccs2)c1 [CBK071069] | 89.9897%
CCCN(C(=O)c1coc(COc2ccc3sc(C)nc3c2)n1)C1CC1 [CBK306878] | 131.94%
CN(C)/C=N/c1ncc2ncn(C3CC(O)C(CO)O3)c2n1 (stereo not shown) [CBK201175] | 168.823%

SMILES | % of control remaining
Cc1nn(-c2ccccn2)c(N)c1C1CC(=O)N(c2ccc(C(=O)O)cc2)C1=O (stereo not shown) [CBK291180] | 176.869%
O=C(N/N=C\c1cccc(O)c1)C(=O)N/N=C/c1cccc(O)c1 [CBK261962] | 121.59%
Cc1cc(OCC(=O)O/N=C(\N)Cc2ccc([N+](=O)[O-])cc2)ccc1Cl [CBK264322] | 105.627%
COc1cc(/C=N/NC(=O)c2cccnc2)cc([N+](=O)[O-])c1O [CBK262233] | 100%
COc1ccc(C(=O)N2CCC3(CCN(C(=O)/C=C/c4ccc5c(c4)OCO5)C3)C2)cc1OC (stereo not shown) [CBK131775] | 93.6382%
OCc1cc(CC2(NCc3cccc4c3OCO4)COC2)no1 [CBK289314] | 178.481%
c1ccc(Oc2cccc(CN3CCC(N4CCN(c5ccccc5)CC4)CC3)c2)cc1 [CBK264662G] | 137.455%
O=C1Nc2ccc(-c3cccc(C(F)(F)F)c3)cc2C(=O)N2C[C@H](O)C[C@@H]12 [CBK289273] | 114.754%
Cc1nc2n(c1C)CCN(c1ccc3nnc(C(F)(F)F)n3n1)C2 [CBK305815] | 127.056%
O=C(O)c1cccc(N2C(=O)c3cccc4c(C(=O)c5ccccc5)ccc(c34)C2=O)c1 [CBK299809] | 105.336%
O=C(OCc1cc([N+](=O)[O-])cc2c1OCOC2)c1ccco1 [CBK297537] | 118.05%
Cn1c2ccccc2c2ncn(CCCO)c(=O)c21 [CBK287951] | 130.41%
COc1ccc(CCNC(=O)N2CCN(CCc3ccccc3)CC2)cc1OC [CBK158915] | 118.759%
COc1ccc(CNC(=O)NC(=O)C2CCN(C(C)=O)CC2)c(OC)c1 [CBK034839] | 106.154%
CC1CCCCN1C(=O)CN1C(=O)[C@H]2CCCN2C(=O)c2ccccc21 (stereo partly shown) [CBK286320] | 136.437%
Cc1cc(=O)cc(C(=O)NC2CCN(c3ncccc3C#N)CC2)o1 [CBK307240] | 118.596%
O=C(C1CC1)N1C2CCC1CC(O)(Cn1ccc3ccncc31)C2 (stereo not shown) [CBK284652] | 135.023%
Cc1c(C(=O)Nc2ccc(C(=O)O)cc2)nnn1-c1ccc(Cl)cc1 [CBK300532] | 124.81%
Cc1cc(C)n(CC2CCCN2CCc2ccccn2)n1 (stereo not shown) [CBK304846] | 69.5619%
CNCCc1nc(-c2cccs2)c2ccccn12 [CBK035905] | 122.342%
O=C(N[C@H]1C[C@H]2C(=O)NC[C@@H](CCC(=O)N3CCOCC3)N2C1)c1cccs1 [CBK289009] | 134.234%
OC1(c2ccc(F)cc2)CCCC2CN(Cc3cccnc3)CC21 (stereo not shown) [CBK284377] | 103.966%
Cc1cccc(C)c1NC(=O)Nc1ccc(F)cc1F [CBK300526] | 139.749%
Cc1cc(NC(=O)CN(C)Cc2ccc(Br)cc2)on1 [CBK305599] | 140.925%
CCc1cccc(C)c1NC(=O)CSc1nnc(-c2cccnc2)n1C [CBK267582] | 124.829%
COc1ccccc1N1CCN(C(=O)NCCc2c[nH]cn2)CC1 [CBK155369] | 158.825%
CCc1c(C)nc2ccccc2c1S(=O)(=O)CCC(=O)OC [CBK155468T] | 112.523%

Single entries from the results shown:
% of control remaining with `CCc1cccc(C)c1NC(=O)CSc1nnc(-c2cccnc2)n1C` [CBK267582] is entered as 124.829%
% of control remaining with `CC1CCCCN1C(=O)CN1C(=O)[C@H]2CCCN2C(=O)c2ccccc21` (stereo partly shown) [CBK286320] is entered as 136.437%
% of control remaining with `Cc1cc(NC(=O)CN(C)Cc2ccc(Br)cc2)on1` [CBK305599] is entered as 140.925%
% of control remaining with `O=C1Nc2ccc(-c3cccc(C(F)(F)F)c3)cc2C(=O)N2C[C@H](O)C[C@@H]12` [CBK289273] is entered as 114.754%

Later entries:

SMILES | % of control remaining
Cc1cc(C)c2c(c1)COC1(CCN(Cc3ccccc3)CC1)O2 [CBK061572] | 103.656%
CCOc1cc(-c2cc(C(=O)O)c3ccccc3n2)ccc1O [CBK266848] | 101.544%
O=C1NC2(CCN(C(=O)c3ccc(C(F)(F)F)c(F)c3)CC2)Oc2ccc(-c3ccccc3)cc21 [CBK115841] | 121.571%
CCC1(CCc2ccccc2)CC(O)=CC(=O)O1 (stereo not shown) [CBK012790] | 102.864%
COc1cccc(CC2(C#N)CC2)c1 [CBK003907] | 113.727%
Cc1nn(CCC#N)c(C)c1[C@@H]1C=C[C@@H](NC(=O)Nc2ccc(Cl)cc2)C1 [CBK288803] | 72.238%
CCc1nc(CC(=O)N2CCOC(c3ccc(F)cc3)C2)cs1 (stereo not shown) [CBK304083] | 112.353%
O=C(Nc1sc2c(c1CN1CCCCCC1)CCCC2)c1ccccc1 [CBK261811] | 116.944%
O=c1cc(N2CCN(c3ccccc3)CC2)[nH]c(=O)n1-c1ccccc1Cl [CBK287506] | 139.192%
Cc1ccc2[nH]c3c(c2c1)CCN(C=O)C31CCN(Cc2ccc(OC(F)F)cc2)CC1 [CBK040438] | 130.837%
Nc1ncnc2sc3c(c12)CCN(C(=O)c1ccc2nccnc2c1)C3 [CBK295588] | 142.568%
Cn1c(C2CC(=O)N(c3ccc(Cl)cc3)C2)nc2ccccc21 (stereo not shown) [CBK287783] | 124.245%
Cc1ccc(N2C(=O)N[C@@H]3CCN(C(=O)c4ccc(C(C)(C)C)cc4)[C@@H]3C2=O)cc1 [CBK289284] | 133.976%
CN(C)CCCNC(=S)NC(=O)c1ccccc1 [CBK265317] | 102.025%
COc1ccc(NC(=O)CCC(=O)O)c(OC)c1 [CBK265451] | 137.161%
O=C(Cn1cc(Br)ccc1=O)NC1CCCN(Cc2ccccc2)C1 (stereo not shown) [CBK305668] | 108.009%
COc1cccc2c3c([nH]c12)CCCC3 [CBK000331] | 124.238%
CC(C)[C@@H](CO)n1c(=O)[nH]c2ncc(-c3ccc(N4CCOCC4)cc3)nc21 [CBK064770] | 163.069%
COc1cccc(-c2noc(Cn3cnc4sccc4c3=O)n2)c1 [CBK297127] | 159.521%
CC1CCN(S(=O)(=O)c2ccc(S(=O)(=O)Nc3ncnn3C)cc2)CC1 [CBK306470] | 91.429%
CCOC(=O)CSc1nc(C)cc(Oc2ccc(=O)n(C)n2)n1 [CBK269476] | 101.149%
Cc1cc(C)c2oc(-c3cccc(NC(=O)c4cccc(Cl)c4Cl)c3C)nc2c1 [CBK264005] | 100%
NNc1nc(-c2ccc(Br)cc2)nc2ccccc12 [CBK262860] | 124.114%
CC1CCn2c3c(c4cccc1c42)CCNCC3 (stereo not shown) [CBK018012C] | 53.2544%
O=C(NC1CCCCC1)N[C@H]1[C@H](O)[C@@H](N2CCN(c3ccccc3)CC2)[C@@H]2OC[C@H]1O2 [CBK288822] | 131.044%
